Data as given in PubChem BioAssay AID1508600 (Functional Genomics Laboratory (NCATS/FGL), 2020).
The whole screen tested about 53,000 sequences, of which about 3,700 (7%) were called active.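 How the source made its calls: active means gene knockdowns whose robust z-score for IL-1 alpha signal is at least 2 or at most -2, so actives lie on both sides; inactive means the rest.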 The list shows a part of the results.

Experiment: Components of the Cytosolic LPS Sensing Pathway: Gene Identification via Genome-wide siRNA Screen;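 further: robust z of the log signal after scaling to non-targeting control siRNA wells of the plate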
Settings: RAW264.7 macrophages, IL-1a HTRF, actives lie on both sides, screened at 100 nM (by protocol), cells primed 5 h with Pam3CSK4 first
Outline: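 Knockdown: 100 nM siRNA, 48h, RAW264.7. Stimulation: Pam3CSK4 5 h, then LipidA via TransIT-TKO 24 h. Output: supernatant IL-1a HTRF, negative-control-normalized, log robust z-score; viability by CellTiter-Glo.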
In the case of GCCAGUUGAAGGUGAUUAATT against Vmn1r35, the z-score is reported as inactive: 0.886.
With GCUUGGUGUGGAAUUUUUUTT against Ppp2r1a the z-score was inactive: 0.125.
For GGAUCUGGAAUCACUGUUUTT against Lmnb2, the z-score was inactive: -0.451.
With CCACGGGCCAAAUGAAGACTT against Cd27 the z-score was inactive: -0.0262.
For CCACCUUCCUAUGUUUGUATT against Ebf2, the z-score was active: 3.73.
For GGCUGUUCGCUGCUACGAATT against Kdm6a, the z-score was inactive: 0.493.
In the case of GCCCAAAAGUAUAAACCAGTT against Peg12, the z-score is reported as inactive: 0.318.
With GGUCUCCCACCCAACGAUATT against Kbtbd2 the z-score was inactive: 0.228.
In the case of GGAUUCAUCAUCUGUUACUTT against Rit1, the z-score is reported as inactive: 0.529.
With GGAUAUUCCUGGACUGACATT against Rps6 the z-score was inactive: -0.996.
For CGUGUACAUAGACCAUAUATT against Olfr453, the z-score was inactive: 0.199.
With CCUCAAGAGAGCUACCGCATT against Tex48 the z-score was inactive: -0.898.
In the case of GCUCAUCAUGUGAAACUUUTT against Sar1b, the z-score is reported as inactive: 1.01.
In the case of GGCAGUACUGUCCAGAUGATT against Gsdma2, the z-score is reported as active: -2.12.
With “GAAAACAGAAAACCCACAGTT against Vmn1r190-ps” the z-score was inactive: 0.153.
In the case of CCAUCUACGUGGGACACAATT against Atp11a, the z-score is reported as inactive: 0.976.
For CCAGUUUGGACAUUGGAAATT against Cyp26b1, the z-score was inactive: 0.22.
In the case of GGCAGUAGCCUUGUCUGUCTT against Prrx2, the z-score is reported as inactive: -1.42.
With CCUGGAGAGCAUCCUUCUUTT against Olfr382 the z-score was inactive: 0.77.
In the case of CCACAACUAUGAGUCUAUUTT against Ech1, the z-score is reported as active: 2.05.
In the case of GCACUUUGCCAGAUAUAACTT against Glipr1, the z-score is reported as inactive: -1.16.
For GGAAACACUUGAACAAAGATT against Tph2, the z-score was inactive: 0.518.
For GGUAAGUUAAAUGAUGACATT against Ccdc148, the z-score was inactive: -0.896.
For CCUUCACUAUAUUCAACUUTT against Olfr479, the z-score was inactive: 0.734.
With GCCCAUGGGAUGUUCAACUTT against Nos1 the z-score was inactive: -1.86.
In the case of CCUCUGUUAUGGUAAUUCUTT against Olfr1323, the z-score is reported as inactive: -0.371.
With GCUAAGGCUUGGAAUGACATT against Maged1 the z-score was inactive: -0.105.
For GCCUCUGUUCUGACCAUAGTT against Gm128, the z-score was inactive: 0.505.
In the case of GGAUGUAGCACUCAAACUUTT against Usp6nl, the z-score is reported as inactive: -0.102.
For GCGAAAAACGGUCACCUAUTT against Tom1l2, the z-score was inactive: 0.407.
For GGUCAUUGGCUUGAGUGCATT against Alppl2, the z-score was inactive: -1.7.
With CGGCAUCUAAUCAGUUUAATT against Farp1 the z-score was inactive: 1.25.
With GGCGUAAUUUUGAUUCAGUTT against Fam53a the z-score was inactive: -0.126.
For UUUCAAUCUGUAGCUUUCCTT against Krt86, the z-score was inactive: 0.071.
For GGACGUGUAGCUUGGAAUATT against Rnf26, the z-score was active: 5.33.
In the case of GGACAUCGUGCAAUACGCATT against Vangl1, the z-score is reported as inactive: 0.754.
For GACCUACCAGAACAUCACUTT against Zfp825, the z-score was inactive: 0.241.
For CCAAACGUGCCUCUAAGUUTT against Vkorc1, the z-score was inactive: 0.964.
With CGUAAACAUAUAGGACUGGTT against Ssty1 the z-score was inactive: 0.0955.
For GGGAGGUCAACCUUUUAAUTT against Cyp2j5, the z-score was inactive: -1.16.
With CGUUUACCAGGAUAUCCAATT against Mmp27 the z-score was inactive: 1.64.
With GGAAAAUUUUGAAAGACCUTT against Atf1 the z-score was inactive: -0.347.
With GCUCACAACAUGAGAGUCATT against Atp6v0e the z-score was inactive: -0.539.
In the case of GGAAAAUUCCAUUCCAAAGTT against Rbm34, the z-score is reported as inactive: -0.0226.
In the case of GGUACCAUACGACAUUAAUTT against Slc25a36, the z-score is reported as inactive: 0.275.
With GCCAGCAUAUGGACUACAATT against Ccnt2 the z-score was inactive: -0.977.
With GGAUCACAUCUAUGAGAAGTT against Fdx1 the z-score was inactive: 0.516.
For GCAAUCGUAAGUAAAUAGATT against Gas1, the z-score was inactive: -1.64.
In the case of GCAAAUGUCUCGGAAAGAATT against Cdk11b, the z-score is reported as active: -2.18.
With GCGCAAAGUCGAAUCCAGUTT against Vgll1 the z-score was inactive: -0.156.
With GCGAUUACCUGGAUAUCGGTT against Acvrl1 the z-score was inactive: -1.25.
With GCCUUAAUGAACCAGCACCTT against Tek the z-score was inactive: 0.561.
For GGGCCAUGGAUAAGAAAAATT against Psmc5, the z-score was active: -2.61.
For GGGCACAGGCACUAAAAUGTT against Sbk1, the z-score was inactive: 0.101.
With CGACGAGAAAAUCACUCAGTT against Nkx6-1 the z-score was inactive: -0.321.
With GGAAAUCACCAACUUGGCCTT against Pou3f3 the z-score was inactive: -0.0208.
In the case of CGUGAUGUGAACGGAGGUATT against Six2, the z-score is reported as inactive: 0.639.
With GCAGAGCUAACCUCAUUUGTT against Gmeb2 the z-score was inactive: -0.148.
In the case of AUCGUAUUGCUCUUUUACGTT against Pdp2, the z-score is reported as inactive: -1.52.
For GGUUCUCCAGUGGUCUGACTT against Rab29, the z-score was inactive: -0.44.
In the case of CCCAGGAACUAUGAGUUGUTT against Rnf31, the z-score is reported as inactive: -1.87.
For GGGACAUUUCUAUUAGAAUTT against Snx24, the z-score was inactive: -0.95.
In the case of CCUAAUAAGCUUUAAAGGATT against Mrm1, the z-score is reported as inactive: 0.171.
In the case of GCUCCUACCCAAGGUUUAATT against Arl9, the z-score is reported as inactive: 0.6.
With GGUACUUUCGCAUCCUGCATT against Rnaseh2b the z-score was inactive: -0.397.
With GGCCUUUAGUGCCAUUGUUTT against Rhno1 the z-score was inactive: -0.423.
With GGCUGAAGGCAAAUCAAGATT against Cuzd1 the z-score was inactive: -0.224.
With GCCGUUCUCGGGUAAUGUUTT against Cpeb2 the z-score was inactive: -1.49.
For GGCCCUGAGAGAAACAAGATT against Ly9, the z-score was inactive: -1.62.
With GCCAGGCUUACAAUAGUCCTT against Tpsg1 the z-score was inactive: -1.84.
In the case of GGCAAGAAAGAAAGGCCAATT against Rps23, the z-score is reported as inactive: 0.00872.
For GUGAUGAUUGAGAGAAUGATT against Pla2g2e, the z-score was inactive: -1.04.
With CGAGACACACCUAAAUAUGTT against Nop58 the z-score was inactive: -0.608.
With CCUAUUCCAACAAUUGGUUTT against Trim23 the z-score was inactive: -0.0743.
In the case of GGAAGUGGCUGUUGCUUCUTT against Lcn8, the z-score is reported as inactive: -0.111.
For GGACUACAUAAGGAAGGUUTT against Ccdc130, the z-score was inactive: 1.64.
With GGCCUCCUUUGAUCAUGCGTT against Zfp219 the z-score was inactive: 1.78.
With GGACCAAGGAGCAUUGAAATT against Fkbp7 the z-score was inactive: 1.06.
With GGUAGAAUGGUUUUGAAGATT against Rnf130 the z-score was inactive: -0.0426.
For GGUGUUCACACUCUUUUCUTT against Laptm4b, the z-score was inactive: 0.362.
In the case of GCUCUCAUACACGGUGGAATT against Ros1, the z-score is reported as inactive: -0.272.
For GAAGCUUUGGUGGUACUAATT against Krtap19-2, the z-score was inactive: 0.174.
With GGUGGACACUCUUGACCUATT against Zfp235 the z-score was inactive: -0.418.
For GGAAUCACUCAAAGCUUAATT against Dst, the z-score was inactive: -1.11.
In the case of GGCACAAGUCUCCUUGUAATT against Vamp7, the z-score is reported as inactive: -0.858.
In the case of GGAAGAGAAAGACCUGAGATT against Glra1, the z-score is reported as inactive: -0.0808.
For CCUGGACGAGUGCUGAAGATT against Cr1l, the z-score was inactive: 0.861.
For GGCUUUAAUUGUGAGAUGCTT against Il1rl1, the z-score was inactive: -1.6.
With GGUACAGAUUGUAAACAUUTT against Crebrf the z-score was inactive: 0.872.
In the case of GGAUUGGCUCAAAGAUAUATT against Prss16, the z-score is reported as inactive: 0.221.
In the case of GGAAAAUCCAUCUGGCCGATT against Myoc, the z-score is reported as inactive: 0.405.
For GCACACAAAACAUCUAACCTT against Raver2, the z-score was inactive: 0.219.
For GCUUACCAGAUUGUAUGUATT against Mrgpra1, the z-score was inactive: 0.533.
In the case of CGAACAGGUAAAUGUGAGCTT against Spag16, the z-score is reported as inactive: 0.893.
With GGGUUUUUUUAGAGAGAUUTT against Susd3 the z-score was active: -2.11.
With GGGUAUAGAGUCAAUCUGATT against Gfm2 the z-score was inactive: -0.381.
For GGAAGGUUUCAUCUUCAAATT against Hsf2, the z-score was inactive: 0.719.
In the case of CCUGAGAGUAACUCUGAGGTT against Mon1b, the z-score is reported as inactive: 1.32.
With GGGAAGCUUCUGUGAGUUUTT against Stag3 the z-score was inactive: 1.81.
For CCGACUUGGAUAUUGCAUATT against Saraf, the z-score was inactive: -1.14.
With GGCAUCUAGGAGAACCUCATT against Insig2 the z-score was inactive: -1.01.
In the case of GGAUUCAGUGGAAAUCUUUTT against Gjc2, the z-score is reported as inactive: -0.293.
In the case of GGGCUACUCAAUGUCUUAUTT against Adgrd1, the z-score is reported as inactive: 1.11.
With GCAUUCGGUACUUAUUUGATT against Ugt2b35 the z-score was inactive: -0.317.
With GCUACUCGCGUUUAAUUUUTT against Slc9a9 the z-score was inactive: -0.238.
In the case of GCACUAGCUCUUCACCUCUTT against Glt1d1, the z-score is reported as inactive: -0.109.
With GGAGGUCGAGCUAUGUUUATT against Psmd11 the z-score was inactive: -1.95.
